Measured values as given in the supplement of paper PMC12823440, “Inhibitors supercharge kinase turnover through native proteolytic circuits” (Nature, 2025).
The list shows a part of the results. The calls rarely recur for the same compound in another form.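 Kinases were expressed as nanoluciferase fusions in K562 cells and luminescence was read every 4 h between 2 and 18 h as percent of control, DMSO set to 100% and a positive control to 0%. A time point counts as decreased when the signal drops significantly (2 sigma). The hit call is the authors' own, does not follow from the count of time points alone, and its rule is not shown.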

The chains behind the UniProt entries cited, without tags or fusion partners. Where a name states a change or a piece, a line headed by the entry shows the natural chain unless it says otherwise.
UniProt P28482, whole entry: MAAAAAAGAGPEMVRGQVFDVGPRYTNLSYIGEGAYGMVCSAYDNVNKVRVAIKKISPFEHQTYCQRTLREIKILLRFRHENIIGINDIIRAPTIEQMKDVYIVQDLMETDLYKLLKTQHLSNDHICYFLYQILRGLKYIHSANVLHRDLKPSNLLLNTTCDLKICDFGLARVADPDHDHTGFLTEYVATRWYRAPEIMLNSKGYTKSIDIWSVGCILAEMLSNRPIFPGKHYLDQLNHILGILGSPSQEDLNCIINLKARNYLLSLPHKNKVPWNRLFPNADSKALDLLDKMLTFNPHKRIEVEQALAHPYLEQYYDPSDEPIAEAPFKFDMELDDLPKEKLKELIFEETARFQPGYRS
UniProt Q16620, whole entry, looked up: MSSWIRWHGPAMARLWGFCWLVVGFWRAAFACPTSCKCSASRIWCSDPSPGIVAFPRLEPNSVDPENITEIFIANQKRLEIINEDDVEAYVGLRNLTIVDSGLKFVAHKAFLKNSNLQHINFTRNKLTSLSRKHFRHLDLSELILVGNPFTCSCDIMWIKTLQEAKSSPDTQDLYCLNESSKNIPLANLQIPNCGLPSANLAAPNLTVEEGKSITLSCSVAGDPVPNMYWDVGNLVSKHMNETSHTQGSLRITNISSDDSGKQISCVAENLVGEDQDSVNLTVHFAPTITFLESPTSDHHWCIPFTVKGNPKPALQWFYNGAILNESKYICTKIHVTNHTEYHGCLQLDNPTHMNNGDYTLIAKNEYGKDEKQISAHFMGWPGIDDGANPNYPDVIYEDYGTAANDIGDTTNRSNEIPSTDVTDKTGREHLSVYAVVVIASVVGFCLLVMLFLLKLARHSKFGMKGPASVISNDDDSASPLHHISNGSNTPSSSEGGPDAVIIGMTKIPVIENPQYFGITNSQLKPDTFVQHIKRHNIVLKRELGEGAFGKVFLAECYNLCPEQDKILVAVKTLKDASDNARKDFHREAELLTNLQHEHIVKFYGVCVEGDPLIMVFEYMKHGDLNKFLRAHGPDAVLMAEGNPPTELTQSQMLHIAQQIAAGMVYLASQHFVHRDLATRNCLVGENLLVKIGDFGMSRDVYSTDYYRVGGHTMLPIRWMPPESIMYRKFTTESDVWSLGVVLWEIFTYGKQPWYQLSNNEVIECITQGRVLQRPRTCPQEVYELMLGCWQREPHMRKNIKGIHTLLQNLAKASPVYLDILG
UniProt P42356, whole entry, looked up: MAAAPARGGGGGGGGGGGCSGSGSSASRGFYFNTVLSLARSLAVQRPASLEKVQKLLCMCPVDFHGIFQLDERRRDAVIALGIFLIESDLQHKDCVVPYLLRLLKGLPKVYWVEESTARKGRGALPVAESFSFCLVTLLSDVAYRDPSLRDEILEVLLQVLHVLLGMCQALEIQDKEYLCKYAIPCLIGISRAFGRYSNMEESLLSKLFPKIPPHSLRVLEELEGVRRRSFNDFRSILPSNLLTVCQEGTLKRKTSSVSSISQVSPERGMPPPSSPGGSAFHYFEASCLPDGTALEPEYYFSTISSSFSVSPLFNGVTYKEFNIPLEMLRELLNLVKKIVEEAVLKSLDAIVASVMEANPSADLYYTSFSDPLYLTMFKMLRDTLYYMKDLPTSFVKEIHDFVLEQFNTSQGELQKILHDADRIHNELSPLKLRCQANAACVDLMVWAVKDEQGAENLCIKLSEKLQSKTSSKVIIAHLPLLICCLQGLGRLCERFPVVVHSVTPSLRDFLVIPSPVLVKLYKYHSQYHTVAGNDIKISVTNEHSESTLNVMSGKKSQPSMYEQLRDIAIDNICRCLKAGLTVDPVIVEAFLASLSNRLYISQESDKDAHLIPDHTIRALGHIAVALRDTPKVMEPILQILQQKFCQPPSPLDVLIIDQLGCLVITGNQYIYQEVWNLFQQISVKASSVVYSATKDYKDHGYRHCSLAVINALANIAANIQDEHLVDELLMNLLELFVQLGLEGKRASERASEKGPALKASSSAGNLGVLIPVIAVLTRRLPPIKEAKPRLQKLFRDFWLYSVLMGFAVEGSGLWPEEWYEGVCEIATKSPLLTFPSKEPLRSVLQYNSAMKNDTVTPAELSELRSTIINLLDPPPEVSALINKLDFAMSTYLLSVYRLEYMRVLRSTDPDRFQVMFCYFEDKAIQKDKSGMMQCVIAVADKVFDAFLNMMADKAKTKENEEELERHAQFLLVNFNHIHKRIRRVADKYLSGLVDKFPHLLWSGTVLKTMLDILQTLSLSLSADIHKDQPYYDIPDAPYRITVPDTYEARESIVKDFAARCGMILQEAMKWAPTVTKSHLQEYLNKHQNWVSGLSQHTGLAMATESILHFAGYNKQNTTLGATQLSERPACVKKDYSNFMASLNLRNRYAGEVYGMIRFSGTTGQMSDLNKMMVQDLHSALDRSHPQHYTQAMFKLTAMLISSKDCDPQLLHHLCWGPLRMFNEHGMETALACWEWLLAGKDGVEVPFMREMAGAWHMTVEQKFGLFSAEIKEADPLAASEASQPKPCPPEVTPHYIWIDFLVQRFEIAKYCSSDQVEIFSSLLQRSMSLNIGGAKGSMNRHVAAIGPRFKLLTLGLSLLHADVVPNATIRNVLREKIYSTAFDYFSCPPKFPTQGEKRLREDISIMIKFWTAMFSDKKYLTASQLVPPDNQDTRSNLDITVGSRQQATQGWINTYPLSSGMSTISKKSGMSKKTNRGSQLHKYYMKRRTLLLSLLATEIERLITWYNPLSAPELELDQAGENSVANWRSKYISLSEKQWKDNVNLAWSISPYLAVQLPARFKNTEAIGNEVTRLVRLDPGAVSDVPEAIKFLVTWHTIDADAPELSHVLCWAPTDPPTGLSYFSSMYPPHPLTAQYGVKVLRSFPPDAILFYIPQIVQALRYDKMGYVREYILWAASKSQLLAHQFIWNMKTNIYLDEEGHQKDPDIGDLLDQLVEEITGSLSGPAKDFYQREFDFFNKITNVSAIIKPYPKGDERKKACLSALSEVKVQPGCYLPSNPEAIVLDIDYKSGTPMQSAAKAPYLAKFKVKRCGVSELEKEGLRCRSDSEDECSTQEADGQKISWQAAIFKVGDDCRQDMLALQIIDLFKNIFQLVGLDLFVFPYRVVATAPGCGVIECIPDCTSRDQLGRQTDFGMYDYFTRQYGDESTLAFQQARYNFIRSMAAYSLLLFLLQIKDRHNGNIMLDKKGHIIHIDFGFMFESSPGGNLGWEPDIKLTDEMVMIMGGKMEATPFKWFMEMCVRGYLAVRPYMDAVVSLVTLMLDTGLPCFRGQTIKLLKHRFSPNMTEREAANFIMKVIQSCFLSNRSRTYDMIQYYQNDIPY
UniProt Q9UBF8: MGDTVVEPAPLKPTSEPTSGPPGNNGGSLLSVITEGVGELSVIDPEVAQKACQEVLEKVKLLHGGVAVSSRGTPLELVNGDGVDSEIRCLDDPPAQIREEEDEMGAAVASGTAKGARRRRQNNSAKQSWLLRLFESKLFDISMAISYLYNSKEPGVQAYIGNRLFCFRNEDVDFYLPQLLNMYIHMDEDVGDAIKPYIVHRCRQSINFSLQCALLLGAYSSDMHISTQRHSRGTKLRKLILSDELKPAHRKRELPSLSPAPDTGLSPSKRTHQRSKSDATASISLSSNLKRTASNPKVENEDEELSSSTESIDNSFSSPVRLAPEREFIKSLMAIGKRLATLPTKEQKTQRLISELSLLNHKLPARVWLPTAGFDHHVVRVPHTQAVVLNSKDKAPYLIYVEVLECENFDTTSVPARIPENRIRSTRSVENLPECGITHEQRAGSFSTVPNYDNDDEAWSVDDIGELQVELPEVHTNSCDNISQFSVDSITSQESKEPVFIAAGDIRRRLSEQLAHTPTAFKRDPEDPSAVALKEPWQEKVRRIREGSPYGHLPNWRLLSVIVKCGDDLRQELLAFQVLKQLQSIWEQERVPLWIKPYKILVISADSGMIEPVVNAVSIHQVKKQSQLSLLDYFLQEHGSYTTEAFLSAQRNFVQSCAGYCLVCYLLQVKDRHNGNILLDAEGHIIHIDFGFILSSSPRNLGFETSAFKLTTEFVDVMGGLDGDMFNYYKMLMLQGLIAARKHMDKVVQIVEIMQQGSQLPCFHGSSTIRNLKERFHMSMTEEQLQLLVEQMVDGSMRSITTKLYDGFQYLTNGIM
UniProt Q13131: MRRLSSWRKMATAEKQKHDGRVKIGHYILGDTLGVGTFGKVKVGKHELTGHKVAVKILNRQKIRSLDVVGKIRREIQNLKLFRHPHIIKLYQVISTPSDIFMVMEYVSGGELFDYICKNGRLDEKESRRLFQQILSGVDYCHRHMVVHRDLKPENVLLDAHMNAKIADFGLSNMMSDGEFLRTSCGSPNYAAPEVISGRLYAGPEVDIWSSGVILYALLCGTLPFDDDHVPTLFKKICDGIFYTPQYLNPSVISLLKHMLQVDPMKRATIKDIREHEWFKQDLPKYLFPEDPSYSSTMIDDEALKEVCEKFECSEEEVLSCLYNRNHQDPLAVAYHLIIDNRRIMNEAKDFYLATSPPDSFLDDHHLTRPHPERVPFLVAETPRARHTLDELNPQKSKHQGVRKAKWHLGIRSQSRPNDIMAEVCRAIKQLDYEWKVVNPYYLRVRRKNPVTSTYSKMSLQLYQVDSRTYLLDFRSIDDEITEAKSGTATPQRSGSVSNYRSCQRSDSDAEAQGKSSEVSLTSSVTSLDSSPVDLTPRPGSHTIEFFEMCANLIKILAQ
UniProt Q05397, whole entry, looked up: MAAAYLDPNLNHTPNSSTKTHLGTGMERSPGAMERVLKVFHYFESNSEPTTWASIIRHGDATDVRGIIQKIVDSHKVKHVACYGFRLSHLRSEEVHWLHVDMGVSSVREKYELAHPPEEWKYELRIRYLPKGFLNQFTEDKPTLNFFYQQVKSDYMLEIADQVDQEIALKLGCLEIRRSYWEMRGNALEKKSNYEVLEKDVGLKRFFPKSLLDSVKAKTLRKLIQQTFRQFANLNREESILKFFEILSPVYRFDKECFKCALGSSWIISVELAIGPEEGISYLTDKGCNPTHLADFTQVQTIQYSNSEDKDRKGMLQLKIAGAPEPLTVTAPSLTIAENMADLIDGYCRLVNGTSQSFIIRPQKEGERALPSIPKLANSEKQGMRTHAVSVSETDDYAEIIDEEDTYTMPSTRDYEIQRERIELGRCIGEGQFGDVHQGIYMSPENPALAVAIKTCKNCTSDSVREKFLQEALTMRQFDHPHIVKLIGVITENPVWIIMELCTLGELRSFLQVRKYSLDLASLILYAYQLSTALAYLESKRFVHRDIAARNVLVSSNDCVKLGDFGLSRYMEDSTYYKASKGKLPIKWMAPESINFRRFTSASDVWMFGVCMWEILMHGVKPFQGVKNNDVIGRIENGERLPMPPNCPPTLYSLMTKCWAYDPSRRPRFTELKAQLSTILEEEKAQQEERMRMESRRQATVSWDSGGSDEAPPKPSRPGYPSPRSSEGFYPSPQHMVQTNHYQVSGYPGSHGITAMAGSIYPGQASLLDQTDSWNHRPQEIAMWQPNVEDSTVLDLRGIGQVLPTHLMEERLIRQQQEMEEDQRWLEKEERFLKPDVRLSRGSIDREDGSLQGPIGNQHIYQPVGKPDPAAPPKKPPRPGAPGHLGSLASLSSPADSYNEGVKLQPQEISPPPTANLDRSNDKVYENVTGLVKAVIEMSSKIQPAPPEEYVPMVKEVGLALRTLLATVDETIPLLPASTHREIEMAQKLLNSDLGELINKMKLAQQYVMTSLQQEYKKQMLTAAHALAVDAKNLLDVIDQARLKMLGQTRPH

Columns and labels:
Experiment in all cases: kinase-Nluc reporter destabilization hit call (1 = scored as downregulated) (binary); higher = compound decreases kinase abundance
Settings in all cases: K562; 2-18 h
[1] = target: MAPK1 (UniProt P28482)
[2] = target: MAPK4 (UniProt P31152)
[3] = target: MAPKAPK2 (UniProt P49137)
[4] = target: MKNK1 (UniProt Q9BUB5)
[5] = target: NTRK2 (UniProt Q16620)
[6] = target: NTRK3 (UniProt Q16288)
[7] = target: PAK4 (UniProt O96013)
[8] = target: PBK (UniProt Q96KB5)
[9] = target: PDGFRB (UniProt P09619)
[10] = target: PDK1 (UniProt Q15118)
[11] = target: PDPK1 (UniProt O15530)
[12] = target: PIK4CA (UniProt P42356)
[13] = target: PIK4CB (UniProt Q9UBF8)
[14] = target: PLK1 (UniProt P53350)
[15] = target: PRKAA1 (UniProt Q13131)
[16] = target: PRKCA (UniProt P17252)
[17] = target: PTK2 (UniProt Q05397)
[18] = target: PTK2B (UniProt Q14289)
[19] = target: RAF1 (UniProt P04049)
[20] = target: RAF1_S257L (clone: RAF1_mut) (UniProt P04049)

Structure (SMILES) | kinase-Nluc reporter destabilization hit call [1] | kinase-Nluc reporter destabilization hit call [2] | kinase-Nluc reporter destabilization hit call [3] | kinase-Nluc reporter destabilization hit call [4] | kinase-Nluc reporter destabilization hit call [5] | kinase-Nluc reporter destabilization hit call [6] | kinase-Nluc reporter destabilization hit call [7] | kinase-Nluc reporter destabilization hit call [8] | kinase-Nluc reporter destabilization hit call [9] | kinase-Nluc reporter destabilization hit call [10] | kinase-Nluc reporter destabilization hit call [11] | kinase-Nluc reporter destabilization hit call [12] | kinase-Nluc reporter destabilization hit call [13] | kinase-Nluc reporter destabilization hit call [14] | kinase-Nluc reporter destabilization hit call [15] | kinase-Nluc reporter destabilization hit call [16] | kinase-Nluc reporter destabilization hit call [17] | kinase-Nluc reporter destabilization hit call [18] | kinase-Nluc reporter destabilization hit call [19] | kinase-Nluc reporter destabilization hit call [20]
O=c1c(O)c(-c2ccc(O)c(O)c2)oc2cc(O)cc(O)c12 [Quercetin (dihydrate)] (10 µM) | inactive: 0 | inactive: 0 | inactive: 0 | inactive: 0 | inactive: 0 | inactive: 0 | inactive: 0 | inactive: 0 | inactive: 0 | inactive: 0 | inactive: 0 | inactive: 0 | inactive: 0 | inactive: 0 | inactive: 0 | inactive: 0 | inactive: 0 | inactive: 0 | inactive: 0 | inactive: 0
C=CC(=O)Nc1cccc(Nc2nc(Nc3ccc(OCCOC)cc3)ncc2F)c1 [Spebrutinib] (10 µM) | inactive: 0 | inactive: 0 | inactive: 0 | inactive: 0 | inactive: 0 | inactive: 0 | inactive: 0 | inactive: 0 | inactive: 0 | inactive: 0 | inactive: 0 | inactive: 0 | inactive: 0 | inactive: 0 | inactive: 0 | inactive: 0 | inactive: 0 | inactive: 0 | inactive: 0 | inactive: 0
Cc1cc(CS(=O)(=O)c2ccccc2)cc(OCc2ccc(CN3CCC[C@@H]3CO)cc2)c1 [PF-543 (Citrate)] (10 µM) | inactive: 0 | inactive: 0 | inactive: 0 | inactive: 0 | inactive: 0 | inactive: 0 | inactive: 0 | inactive: 0 | inactive: 0 | inactive: 0 | inactive: 0 | inactive: 0 | inactive: 0 | inactive: 0 | inactive: 0 | inactive: 0 | inactive: 0 | inactive: 0 | inactive: 0 | inactive: 0
Nc1nc(N)c(N=O)c(OCC2CCCCC2)n1 (10 µM) | inactive: 0 | inactive: 0 | inactive: 0 | inactive: 0 | inactive: 0 | inactive: 0 | inactive: 0 | inactive: 0 | inactive: 0 | inactive: 0 | inactive: 0 | inactive: 0 | inactive: 0 | inactive: 0 | inactive: 0 | inactive: 0 | inactive: 0 | inactive: 0 | inactive: 0 | inactive: 0
COc1cc(OC)c(F)c(COc2cnc(Nc3cnn(CCO)c3)nc2)c1F (2.5 µM) | inactive: 0 | inactive: 0 | inactive: 0 | inactive: 0 | inactive: 0 | inactive: 0 | inactive: 0 | inactive: 0 | inactive: 0 | inactive: 0 | inactive: 0 | inactive: 0 | inactive: 0 | inactive: 0 | inactive: 0 | inactive: 0 | inactive: 0 | inactive: 0 | inactive: 0 | inactive: 0
COC(=O)c1ccc2c(C(=Nc3ccc(N(C)C(=O)CN4CCN(C)CC4)cc3)c3ccccc3)c(O)[nH]c2c1 [Nintedanib] (2.5 µM) | inactive: 0 | inactive: 0 | inactive: 0 | inactive: 0 | inactive: 0 | inactive: 0 | inactive: 0 | inactive: 0 | inactive: 0 | inactive: 0 | inactive: 0 | inactive: 0 | inactive: 0 | inactive: 0 | inactive: 0 | inactive: 0 | inactive: 0 | inactive: 0 | inactive: 0 | inactive: 0
Cc1c(C(=O)N2CCOc3ccc(-c4ccc(N)nc4)cc3C2)ccc(S(C)(=O)=O)c1F (10 µM) | inactive: 0 | inactive: 0 | inactive: 0 | inactive: 0 | inactive: 0 | inactive: 0 | inactive: 0 | inactive: 0 | inactive: 0 | inactive: 0 | inactive: 0 | inactive: 0 | inactive: 0 | inactive: 0 | inactive: 0 | inactive: 0 | inactive: 0 | inactive: 0 | inactive: 0 | inactive: 0
COc1cc(C=C(C#N)C(N)=O)cc(CSc2nc3ccccc3s2)c1O (10 µM) | inactive: 0 | inactive: 0 | inactive: 0 | inactive: 0 | inactive: 0 | inactive: 0 | inactive: 0 | inactive: 0 | inactive: 0 | inactive: 0 | inactive: 0 | inactive: 0 | inactive: 0 | inactive: 0 | inactive: 0 | inactive: 0 | inactive: 0 | inactive: 0 | inactive: 0 | inactive: 0
COc1ccc2c(C(=O)Nc3ccc(NC(=O)c4nn(C5CCN(C(=O)CC(C)(C)C#N)CC5)c5ccc(F)cc45)cc3Cl)cnn2c1 [Src Inhibitor 3] (2.5 µM) | inactive: 0 | inactive: 0 | inactive: 0 | inactive: 0 | inactive: 0 | inactive: 0 | inactive: 0 | inactive: 0 | inactive: 0 | inactive: 0 | inactive: 0 | inactive: 0 | inactive: 0 | inactive: 0 | inactive: 0 | inactive: 0 | inactive: 0 | inactive: 0 | inactive: 0 | inactive: 0
CC(C)(C)S(=O)(=O)c1cc2c(Nc3ccc4scnc4c3)ncnc2cc1OCCO (2.5 µM) | inactive: 0 | inactive: 0 | inactive: 0 | inactive: 0 | inactive: 0 | inactive: 0 | inactive: 0 | inactive: 0 | inactive: 0 | inactive: 0 | inactive: 0 | inactive: 0 | inactive: 0 | inactive: 0 | inactive: 0 | inactive: 0 | inactive: 0 | inactive: 0 | inactive: 0 | inactive: 0
CCC(=O)N1CCN(c2ccc(-n3c(=O)ccc4cnc5ccc(-c6cnc7ccccc7c6)cc5c43)cc2C(F)(F)F)CC1 [Torin 1] (2 µM) | inactive: 0 | inactive: 0 | inactive: 0 | inactive: 0 | inactive: 0 | inactive: 0 | inactive: 0 | inactive: 0 | inactive: 0 | inactive: 0 | inactive: 0 | inactive: 0 | inactive: 0 | inactive: 0 | inactive: 0 | inactive: 0 | inactive: 0 | inactive: 0 | inactive: 0 | inactive: 0
FC(F)(F)c1ccc(CNc2ccc(Cc3c[nH]c4ncc(Cl)cc34)cn2)cc1 (10 µM) | inactive: 0 | inactive: 0 | inactive: 0 | inactive: 0 | inactive: 0 | inactive: 0 | inactive: 0 | inactive: 0 | inactive: 0 | inactive: 0 | inactive: 0 | inactive: 0 | inactive: 0 | inactive: 0 | inactive: 0 | inactive: 0 | inactive: 0 | inactive: 0 | inactive: 0 | inactive: 0
C=CC(=O)N1CC[C@H](n2nc(C#Cc3cc(OC)cc(OC)c3)c3c(N)ncnc32)C1 [Futibatinib] (10 µM) | inactive: 0 | inactive: 0 | inactive: 0 | inactive: 0 | inactive: 0 | inactive: 0 | inactive: 0 | inactive: 0 | inactive: 0 | inactive: 0 | inactive: 0 | inactive: 0 | inactive: 0 | inactive: 0 | inactive: 0 | inactive: 0 | inactive: 0 | inactive: 0 | inactive: 0 | inactive: 0
COc1cc2ncnc(Nc3cccc(O)c3)c2cc1OC (10 µM) | inactive: 0 | inactive: 0 | inactive: 0 | inactive: 0 | inactive: 0 | inactive: 0 | inactive: 0 | inactive: 0 | inactive: 0 | inactive: 0 | inactive: 0 | inactive: 0 | inactive: 0 | inactive: 0 | inactive: 0 | inactive: 0 | inactive: 0 | inactive: 0 | inactive: 0 | active: 1
CCN(CC)CCCCNc1ncc2cc(-c3cc(OC)cc(OC)c3)c(NC(=O)NC(C)(C)C)nc2n1 (10 µM) | inactive: 0 | inactive: 0 | inactive: 0 | inactive: 0 | inactive: 0 | inactive: 0 | inactive: 0 | inactive: 0 | inactive: 0 | inactive: 0 | inactive: 0 | inactive: 0 | inactive: 0 | inactive: 0 | inactive: 0 | inactive: 0 | inactive: 0 | inactive: 0 | inactive: 0 | inactive: 0
CC#CC(=O)N[C@H]1CCCN(c2c(F)cc(C(N)=O)c3[nH]c(C)c(C)c23)C1 [Branebrutinib] (10 µM) | inactive: 0 | inactive: 0 | inactive: 0 | inactive: 0 | inactive: 0 | inactive: 0 | inactive: 0 | inactive: 0 | inactive: 0 | inactive: 0 | inactive: 0 | inactive: 0 | inactive: 0 | inactive: 0 | inactive: 0 | inactive: 0 | inactive: 0 | inactive: 0 | inactive: 0 | inactive: 0
C=CC(=O)N[C@H]1COC[C@H]1Nc1ncc2cc(-c3c(Cl)c(OC)cc(OC)c3Cl)c(=O)n(C)c2n1 (10 µM) | inactive: 0 | inactive: 0 | inactive: 0 | inactive: 0 | inactive: 0 | inactive: 0 | inactive: 0 | inactive: 0 | inactive: 0 | inactive: 0 | inactive: 0 | inactive: 0 | inactive: 0 | inactive: 0 | inactive: 0 | inactive: 0 | inactive: 0 | inactive: 0 | inactive: 0 | inactive: 0
NC(=O)c1ccc2nc(-c3ccc(Oc4ccc(Cl)cc4)cc3)[nH]c2c1 (10 µM) | inactive: 0 | inactive: 0 | inactive: 0 | inactive: 0 | inactive: 0 | inactive: 0 | inactive: 0 | inactive: 0 | inactive: 0 | inactive: 0 | inactive: 0 | inactive: 0 | inactive: 0 | inactive: 0 | inactive: 0 | inactive: 0 | inactive: 0 | inactive: 0 | inactive: 0 | inactive: 0

Pulled one by one from the entries so far:
Structure (SMILES) | kinase-Nluc reporter destabilization hit call [1] | kinase-Nluc reporter destabilization hit call [2] | kinase-Nluc reporter destabilization hit call [3] | kinase-Nluc reporter destabilization hit call [4] | kinase-Nluc reporter destabilization hit call [5] | kinase-Nluc reporter destabilization hit call [6] | kinase-Nluc reporter destabilization hit call [7] | kinase-Nluc reporter destabilization hit call [8] | kinase-Nluc reporter destabilization hit call [9] | kinase-Nluc reporter destabilization hit call [10] | kinase-Nluc reporter destabilization hit call [11] | kinase-Nluc reporter destabilization hit call [12] | kinase-Nluc reporter destabilization hit call [13] | kinase-Nluc reporter destabilization hit call [14] | kinase-Nluc reporter destabilization hit call [15] | kinase-Nluc reporter destabilization hit call [16] | kinase-Nluc reporter destabilization hit call [17] | kinase-Nluc reporter destabilization hit call [18] | kinase-Nluc reporter destabilization hit call [19] | kinase-Nluc reporter destabilization hit call [20]
C=CC(=O)Nc1cccc(Nc2nc(Nc3ccc(OCCOC)cc3)ncc2F)c1 [Spebrutinib] (10 µM) | inactive: 0 | inactive: 0 | inactive: 0 | inactive: 0 | inactive: 0 | inactive: 0 | inactive: 0 | inactive: 0 | inactive: 0 | inactive: 0 | inactive: 0 | inactive: 0 | inactive: 0 | inactive: 0 | inactive: 0 | inactive: 0 | inactive: 0 | inactive: 0 | inactive: 0 | inactive: 0
COc1cc2ncnc(Nc3cccc(O)c3)c2cc1OC (10 µM) | inactive: 0 | inactive: 0 | inactive: 0 | inactive: 0 | inactive: 0 | inactive: 0 | inactive: 0 | inactive: 0 | inactive: 0 | inactive: 0 | inactive: 0 | inactive: 0 | inactive: 0 | inactive: 0 | inactive: 0 | inactive: 0 | inactive: 0 | inactive: 0 | inactive: 0 | active: 1
